Reference: article PMC11696179, “Molecular condensation of the CO/NF-YB/NF-YC/FT complex gates floral transition in Arabidopsis” (The EMBO Journal, 2024)
Results are given in words; binding and its absence hold for the method and conditions named. Some entries that bind do so weakly or less than the wild type. For part of these data: Sequences can lack the tags named with a protein.

The chains behind the UniProt entries cited, without tags or fusion partners.
UniProt Q39057: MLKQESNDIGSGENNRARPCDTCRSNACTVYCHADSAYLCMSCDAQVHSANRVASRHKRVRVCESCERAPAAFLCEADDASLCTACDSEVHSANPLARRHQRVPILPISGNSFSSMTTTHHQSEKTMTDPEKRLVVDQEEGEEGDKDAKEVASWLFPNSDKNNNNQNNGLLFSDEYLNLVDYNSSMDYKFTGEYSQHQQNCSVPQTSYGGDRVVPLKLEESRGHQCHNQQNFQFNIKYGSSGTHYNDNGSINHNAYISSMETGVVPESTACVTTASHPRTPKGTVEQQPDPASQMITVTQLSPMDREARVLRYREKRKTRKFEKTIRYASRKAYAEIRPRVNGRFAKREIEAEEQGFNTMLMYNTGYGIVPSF

Legend:
[1] = substrate: CO (CONSTANS), yeast two-hybrid fusion (Arabidopsis thaliana) (UniProt Q39057); experiment: two-hybrid; yeast AH109; pGBKT7 and pGADT7 fusions; growth on SD/-Trp/-Leu/-His with 10 mM 3-AT
[2] = target: CO/NF-YC9 mixture (mCherry-CO with NF-YC9-GFP), immobilised together (Arabidopsis thaliana) (UniProt Q39057+Q8L4B2); experiment: SPR; Biacore T200, 25 °C; CO, NF-YC9 or a CO/NF-YC9 mixture (4:1) amine-coupled to a CM5 chip (1000-2000 RU); analytes NF-YB2, CO, NF-YC9 in twofold dilutions; HBST (10 mM HEPES, 150 mM NaCl, 3 mM EDTA, 0.05% Tween 20, pH 7.4); bivalent analyte model; both purified

binding [1]	binding [2]	Binder
binds	–	NF-YC9, full length, yeast two-hybrid fusion (protein, UniProt Q8L4B2 1-231) MDQQDHGQSGAMNYGTNPYQTNPMSTTAATVAGGAAQPGQLAFHQIHQQQQQQQLAQQLQAFWENQFKEIEKTTDFKNHSLPLARIKKIMKADEDVRMISAEAPVVFARACEMFILELTLRSWNHTEENKRRTLQKNDIAAAVTRTDIFDFLVDIVPREDLRDEVLGSIPRGTVPEAAAAGYPYGYLPAGTAPIGNPGMVMGNPGGAYPPNPYMGQPMWQQQAPDQPDQEN
binds	–	NF-YC9-∆IDR1&2, yeast two-hybrid fusion (domain or fragment, UniProt Q8L4B2 55-166) LAQQLQAFWENQFKEIEKTTDFKNHSLPLARIKKIMKADEDVRMISAEAPVVFARACEMFILELTLRSWNHTEENKRRTLQKNDIAAAVTRTDIFDFLVDIVPREDLRDEVL
–	binds	NF-YB2, recombinant (natural protein, Arabidopsis thaliana, UniProt Q9FGJ3 1-190, looked up, Nuclear Factor-Y subunit B2 (NF-YB2), Arabidopsis thaliana; Unlabelled form, as used in SPR; also called His-NF-YB2; source: E. coli Rosetta pLysS, purified (HisTrap; size exclusion when necessary)) MGDSDRDSGGGQNGNNQNGQSSLSPREQDRFLPIANVSRIMKKALPANAKISKDAKETMQECVSEFISFVTGEASDKCQKEKRKTINGDDLLWAMTTLGFEDYVEPLKVYLQRFREIEGERTGLGRPQTGGEVGEHQRDAVGDGGGFYGGGGGMQYHQHHQFLHQQNHMYGATGGGSDSGGGAASGRTRT
